Experiment: general procedure: solution-phase peptide synthesis; EDC, HOBT
Settings: whole synthesis, analytical HPLC, Zorbax Eclipse XDB-C18, UV detection @ 210 and 254 nm, scale 1 g

## protected Dmt-D-Arg-Phe-Lys-NH2 tetramer
  purity (crude or final not stated): 90%
